Test results reported in the supplement of paper PMC10849652.
Some of the results follow.

Sequences of proteins named here, by UniProt entry; tags and fusion partners are left off. A change or cut given only in a name is not applied to a line headed by its entry.
UniProt Q15750: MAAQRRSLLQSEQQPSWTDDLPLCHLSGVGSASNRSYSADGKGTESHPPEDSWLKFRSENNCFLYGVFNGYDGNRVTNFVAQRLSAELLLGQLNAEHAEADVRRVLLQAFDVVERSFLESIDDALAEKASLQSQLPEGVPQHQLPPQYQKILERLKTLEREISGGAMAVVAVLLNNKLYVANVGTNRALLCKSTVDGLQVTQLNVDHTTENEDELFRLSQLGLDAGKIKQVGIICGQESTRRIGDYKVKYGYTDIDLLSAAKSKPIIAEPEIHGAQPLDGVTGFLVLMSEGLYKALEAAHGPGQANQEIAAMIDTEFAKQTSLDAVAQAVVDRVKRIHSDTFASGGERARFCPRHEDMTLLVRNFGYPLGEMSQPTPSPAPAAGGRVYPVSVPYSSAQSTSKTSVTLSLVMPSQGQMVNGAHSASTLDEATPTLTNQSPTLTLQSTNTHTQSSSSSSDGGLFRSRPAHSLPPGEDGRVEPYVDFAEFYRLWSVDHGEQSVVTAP
UniProt Q92804: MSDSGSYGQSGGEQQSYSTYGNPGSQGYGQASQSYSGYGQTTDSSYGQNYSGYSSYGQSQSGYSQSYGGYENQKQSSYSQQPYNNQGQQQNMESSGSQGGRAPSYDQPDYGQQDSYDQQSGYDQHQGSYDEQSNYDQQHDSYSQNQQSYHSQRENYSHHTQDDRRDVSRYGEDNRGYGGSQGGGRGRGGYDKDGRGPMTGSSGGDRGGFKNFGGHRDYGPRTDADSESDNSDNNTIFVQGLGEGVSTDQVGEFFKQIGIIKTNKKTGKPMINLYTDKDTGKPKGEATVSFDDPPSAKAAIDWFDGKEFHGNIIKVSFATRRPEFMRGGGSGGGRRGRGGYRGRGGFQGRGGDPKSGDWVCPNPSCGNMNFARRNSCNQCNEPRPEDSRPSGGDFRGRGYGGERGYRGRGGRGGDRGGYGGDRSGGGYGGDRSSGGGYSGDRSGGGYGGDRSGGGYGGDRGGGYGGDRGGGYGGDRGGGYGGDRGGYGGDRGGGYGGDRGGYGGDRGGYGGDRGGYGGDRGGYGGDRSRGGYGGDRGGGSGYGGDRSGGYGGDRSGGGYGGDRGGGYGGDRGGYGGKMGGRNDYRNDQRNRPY
UniProt Q13188: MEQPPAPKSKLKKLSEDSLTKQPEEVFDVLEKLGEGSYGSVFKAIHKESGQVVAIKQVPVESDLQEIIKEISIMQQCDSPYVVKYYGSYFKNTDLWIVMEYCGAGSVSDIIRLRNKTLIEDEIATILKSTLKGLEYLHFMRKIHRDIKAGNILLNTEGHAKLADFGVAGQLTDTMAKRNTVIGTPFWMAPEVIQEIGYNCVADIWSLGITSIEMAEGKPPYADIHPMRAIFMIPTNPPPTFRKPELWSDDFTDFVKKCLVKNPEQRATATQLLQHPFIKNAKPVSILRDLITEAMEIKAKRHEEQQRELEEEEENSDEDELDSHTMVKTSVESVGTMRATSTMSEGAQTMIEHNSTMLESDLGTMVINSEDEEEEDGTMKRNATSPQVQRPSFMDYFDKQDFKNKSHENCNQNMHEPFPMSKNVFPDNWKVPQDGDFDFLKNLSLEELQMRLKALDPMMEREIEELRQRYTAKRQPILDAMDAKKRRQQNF
UniProt O15400: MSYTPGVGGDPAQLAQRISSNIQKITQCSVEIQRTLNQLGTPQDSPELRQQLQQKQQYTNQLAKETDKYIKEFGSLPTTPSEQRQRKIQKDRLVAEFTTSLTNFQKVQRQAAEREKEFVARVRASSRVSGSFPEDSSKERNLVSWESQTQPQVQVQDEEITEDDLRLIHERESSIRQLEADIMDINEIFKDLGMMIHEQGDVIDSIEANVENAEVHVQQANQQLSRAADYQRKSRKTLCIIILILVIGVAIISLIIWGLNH
UniProt Q8N300: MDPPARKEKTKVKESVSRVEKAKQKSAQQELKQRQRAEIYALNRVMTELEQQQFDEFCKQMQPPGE
UniProt Q9UH99: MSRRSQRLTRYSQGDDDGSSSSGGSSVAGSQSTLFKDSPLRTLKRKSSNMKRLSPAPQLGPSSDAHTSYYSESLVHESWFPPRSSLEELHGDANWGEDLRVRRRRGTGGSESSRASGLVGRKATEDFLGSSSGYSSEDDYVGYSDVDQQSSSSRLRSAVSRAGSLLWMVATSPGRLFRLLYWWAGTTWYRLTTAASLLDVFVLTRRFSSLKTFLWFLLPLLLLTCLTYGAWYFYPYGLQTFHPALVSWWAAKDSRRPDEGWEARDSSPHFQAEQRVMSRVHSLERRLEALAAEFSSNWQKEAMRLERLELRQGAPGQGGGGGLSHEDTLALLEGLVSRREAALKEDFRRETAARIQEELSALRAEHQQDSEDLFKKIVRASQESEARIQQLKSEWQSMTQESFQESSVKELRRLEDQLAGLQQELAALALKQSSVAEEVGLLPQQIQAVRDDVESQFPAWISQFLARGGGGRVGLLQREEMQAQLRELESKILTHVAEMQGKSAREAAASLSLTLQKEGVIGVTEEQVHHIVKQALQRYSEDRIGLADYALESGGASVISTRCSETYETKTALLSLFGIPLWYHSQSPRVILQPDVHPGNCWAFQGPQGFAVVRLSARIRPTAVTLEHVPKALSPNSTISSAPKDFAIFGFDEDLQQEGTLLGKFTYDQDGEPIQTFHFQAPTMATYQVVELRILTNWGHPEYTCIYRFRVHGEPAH
UniProt Q86Y82: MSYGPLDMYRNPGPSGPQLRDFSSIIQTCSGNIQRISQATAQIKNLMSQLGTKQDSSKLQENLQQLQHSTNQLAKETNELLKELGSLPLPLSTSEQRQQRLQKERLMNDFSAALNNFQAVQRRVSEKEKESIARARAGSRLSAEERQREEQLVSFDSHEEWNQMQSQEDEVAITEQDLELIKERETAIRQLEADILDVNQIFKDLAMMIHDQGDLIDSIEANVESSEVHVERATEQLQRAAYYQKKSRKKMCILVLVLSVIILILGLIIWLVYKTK
UniProt P51687: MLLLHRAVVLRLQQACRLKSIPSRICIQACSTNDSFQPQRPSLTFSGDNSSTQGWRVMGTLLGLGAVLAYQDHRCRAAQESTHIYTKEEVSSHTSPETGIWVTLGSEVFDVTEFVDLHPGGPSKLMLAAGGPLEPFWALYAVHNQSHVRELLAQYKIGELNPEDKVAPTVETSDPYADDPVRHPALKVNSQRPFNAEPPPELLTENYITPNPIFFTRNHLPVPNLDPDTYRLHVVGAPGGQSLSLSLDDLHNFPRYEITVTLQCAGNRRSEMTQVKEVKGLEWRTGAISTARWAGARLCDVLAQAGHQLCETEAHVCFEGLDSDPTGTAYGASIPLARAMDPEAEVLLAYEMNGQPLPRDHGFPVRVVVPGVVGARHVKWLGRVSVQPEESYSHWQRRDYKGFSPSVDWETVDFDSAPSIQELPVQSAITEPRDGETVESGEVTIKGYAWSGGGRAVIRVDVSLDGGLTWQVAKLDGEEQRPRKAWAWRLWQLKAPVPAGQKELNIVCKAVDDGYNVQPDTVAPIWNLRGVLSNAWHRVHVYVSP
UniProt Q12962, whole entry, looked up: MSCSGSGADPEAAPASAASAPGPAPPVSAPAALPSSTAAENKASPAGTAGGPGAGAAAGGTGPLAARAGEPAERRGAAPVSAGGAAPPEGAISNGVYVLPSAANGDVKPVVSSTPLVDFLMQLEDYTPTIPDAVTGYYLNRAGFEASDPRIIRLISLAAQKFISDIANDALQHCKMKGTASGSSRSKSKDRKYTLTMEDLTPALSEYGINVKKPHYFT
UniProt Q96I99: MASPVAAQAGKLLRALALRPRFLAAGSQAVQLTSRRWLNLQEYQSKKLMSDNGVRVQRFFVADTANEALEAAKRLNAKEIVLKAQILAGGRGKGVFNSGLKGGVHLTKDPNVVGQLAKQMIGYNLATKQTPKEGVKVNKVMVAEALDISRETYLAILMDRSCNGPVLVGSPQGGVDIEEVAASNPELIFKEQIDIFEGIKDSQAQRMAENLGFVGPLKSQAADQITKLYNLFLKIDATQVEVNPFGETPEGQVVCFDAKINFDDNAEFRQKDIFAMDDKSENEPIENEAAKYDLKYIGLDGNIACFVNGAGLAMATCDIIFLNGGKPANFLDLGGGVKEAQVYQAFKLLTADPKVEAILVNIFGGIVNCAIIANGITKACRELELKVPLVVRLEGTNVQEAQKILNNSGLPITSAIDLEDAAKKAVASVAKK
UniProt Q13148, whole entry, looked up: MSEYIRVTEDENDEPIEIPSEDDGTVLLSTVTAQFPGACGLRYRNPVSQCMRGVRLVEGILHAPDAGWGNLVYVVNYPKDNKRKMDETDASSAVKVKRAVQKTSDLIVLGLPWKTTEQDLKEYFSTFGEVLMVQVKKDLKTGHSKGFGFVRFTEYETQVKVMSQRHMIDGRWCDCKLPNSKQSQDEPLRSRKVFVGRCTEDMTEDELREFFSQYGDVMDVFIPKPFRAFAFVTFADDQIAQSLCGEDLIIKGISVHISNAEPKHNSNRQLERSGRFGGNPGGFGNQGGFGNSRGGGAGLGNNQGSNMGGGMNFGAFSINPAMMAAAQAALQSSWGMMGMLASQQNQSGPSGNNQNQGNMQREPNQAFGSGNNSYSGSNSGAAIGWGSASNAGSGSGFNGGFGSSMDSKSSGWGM
UniProt Q9Y2K9: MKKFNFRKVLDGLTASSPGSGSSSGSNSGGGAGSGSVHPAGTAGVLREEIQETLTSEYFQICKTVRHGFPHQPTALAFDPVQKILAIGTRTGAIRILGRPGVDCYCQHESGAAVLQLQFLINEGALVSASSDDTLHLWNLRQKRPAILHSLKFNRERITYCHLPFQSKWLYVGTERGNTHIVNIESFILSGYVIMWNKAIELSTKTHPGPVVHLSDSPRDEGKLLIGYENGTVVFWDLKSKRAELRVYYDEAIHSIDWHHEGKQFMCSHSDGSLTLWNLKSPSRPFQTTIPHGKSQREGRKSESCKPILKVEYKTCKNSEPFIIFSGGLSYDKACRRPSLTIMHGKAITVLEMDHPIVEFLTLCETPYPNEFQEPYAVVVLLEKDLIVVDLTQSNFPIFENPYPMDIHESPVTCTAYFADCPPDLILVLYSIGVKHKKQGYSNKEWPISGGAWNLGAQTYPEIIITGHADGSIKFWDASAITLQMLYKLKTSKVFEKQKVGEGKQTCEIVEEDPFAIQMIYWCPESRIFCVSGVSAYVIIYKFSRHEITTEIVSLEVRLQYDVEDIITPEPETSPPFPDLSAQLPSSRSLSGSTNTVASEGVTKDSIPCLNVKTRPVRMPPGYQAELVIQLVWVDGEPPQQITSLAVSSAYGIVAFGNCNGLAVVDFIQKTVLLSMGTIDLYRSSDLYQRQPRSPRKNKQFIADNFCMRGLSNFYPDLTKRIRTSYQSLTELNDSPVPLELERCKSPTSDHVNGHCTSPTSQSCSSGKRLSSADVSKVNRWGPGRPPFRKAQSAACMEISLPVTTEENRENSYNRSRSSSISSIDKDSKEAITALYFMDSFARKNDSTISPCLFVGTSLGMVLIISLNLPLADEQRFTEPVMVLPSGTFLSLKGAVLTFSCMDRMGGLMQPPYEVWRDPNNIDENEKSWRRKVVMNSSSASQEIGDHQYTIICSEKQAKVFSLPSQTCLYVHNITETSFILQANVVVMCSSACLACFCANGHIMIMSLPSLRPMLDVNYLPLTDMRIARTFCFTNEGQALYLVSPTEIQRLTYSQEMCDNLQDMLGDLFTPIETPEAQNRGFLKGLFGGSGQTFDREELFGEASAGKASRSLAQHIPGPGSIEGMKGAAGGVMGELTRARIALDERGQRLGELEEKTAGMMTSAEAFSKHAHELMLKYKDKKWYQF
UniProt Q6UWL2: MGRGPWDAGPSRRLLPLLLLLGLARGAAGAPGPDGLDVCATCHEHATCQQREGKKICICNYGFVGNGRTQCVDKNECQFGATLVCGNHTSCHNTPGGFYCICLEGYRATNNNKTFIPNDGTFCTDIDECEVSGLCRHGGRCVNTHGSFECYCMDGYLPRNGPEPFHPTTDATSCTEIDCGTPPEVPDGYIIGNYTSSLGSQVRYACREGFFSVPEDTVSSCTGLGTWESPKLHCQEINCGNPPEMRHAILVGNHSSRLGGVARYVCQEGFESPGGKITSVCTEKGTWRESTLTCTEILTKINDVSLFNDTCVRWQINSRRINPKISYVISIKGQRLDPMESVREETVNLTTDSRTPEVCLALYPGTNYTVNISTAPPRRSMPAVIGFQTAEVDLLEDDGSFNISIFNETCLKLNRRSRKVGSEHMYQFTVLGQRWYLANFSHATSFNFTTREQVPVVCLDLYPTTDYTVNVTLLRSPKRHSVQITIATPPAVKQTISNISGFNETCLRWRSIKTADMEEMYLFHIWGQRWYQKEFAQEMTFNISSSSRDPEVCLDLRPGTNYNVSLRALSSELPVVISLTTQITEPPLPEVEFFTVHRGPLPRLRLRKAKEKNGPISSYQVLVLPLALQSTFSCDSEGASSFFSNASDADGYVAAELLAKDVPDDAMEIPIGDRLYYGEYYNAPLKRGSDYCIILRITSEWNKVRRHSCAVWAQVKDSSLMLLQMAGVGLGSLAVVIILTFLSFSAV

Tests used:
Assay in all cases: log2 fold change, soluble protein after heating vs DMSO (PISA); higher = thermal stabilisation; K562 cells, 10 uM, 30 min; active = over 0.2 and 3.5 SD of the protein, either way, in both replicates (recomputed)
[1] = compound: C1=CC=C(C=C1)[C@H](COC2=CC3=C(C=C2)NC(=O)N3)NC(=O)C4=CC=CN(C4=O)CC5=CC(=C(C=C5)F)F
Procedure, shortened: (§1)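 Quantification of soluble protein used TMTpro 16plex LC-MS/MS, with channel sums equalised. Samples were the supernatant after 21,000xg for 90 min of pooled aliquots from K562 cells (2×10^6 cells/mL) treated with 10 μM compound for 30 min, heated for 3 min over 48°C-58°C, and extracted in PBS with 0.5% NP-40 at 4°C. Values, from duplicates, describe thermal stability against control samples on a log2 fold-change scale.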

[2] = compound: CC1=C(SC2=C1C(=N[C@H](C3=NN=C(N32)C)CC(=O)N)C4=CC=C(C=C4)Cl)C
Procedure, shortened: as §1

[3] = compound: CC1=C2C(=CC=C1)N=C(N(C2=O)C3=CC=CC=C3C)CN4C=NC5=C(N=CN=C54)N
Procedure, shortened: as §1

[4] = compound: Cc1sc2c(c1C)C(c1ccc(Cl)cc1)=N[C@@H](CC(=O)OC(C)(C)C)c1nnc(C)n1-2
Procedure, shortened: as §1

[5] = compound: c1ccc([C@@H]2C[C@H]2NC2CCNCC2)cc1
Procedure, shortened: as §1

Measured: log2 fold change

SYF2 (UniProt O95926)
inactive: [1] 0.032 | [2] 0.029 | [3] -0.077 | [4] 0.145 | [5] 0.065

TACC3 (UniProt Q9Y6A5)
inactive: [1] 0.015 | [2] 0.024 | [3] 0.076 | [4] -0.001 | [5] 0.014

TAF9B (UniProt Q9HBM6)
inactive: [1] 0.036 | [2] -0.048 | [3] -0.009 | [4] 0.091 | [5] 0.161

TAB1 (UniProt Q15750)
inactive: [1] -0.089 | [2] 0.057 | [3] 0.121 | [4] 0.061 | [5] -0.04

STXBP5 (UniProt Q5T5C0)
inactive: [1] -0.011 | [2] 0.017 | [3] 0.15 | [4] -0.04 | [5] -0.027

TAF15 (UniProt Q92804)
inactive: [1] 0.094 | [2] -0.088 | [3] -0.077 | [4] 0.081 | [5] 0.024

TAGLN2 isoform 2 (UniProt P37802)
inactive: [1] -0.006 | [2] 0.042 | [3] 0.015 | [4] -0.05 | [5] -0.019

STK3 isoform 2 (UniProt Q13188)
inactive: [1] 0.038 | [2] 0.015 | [3] 0.001 | [4] -0.013 | [5] 0.025

SYPL1 (UniProt Q16563)
inactive: [1] 0.018 | [2] 0.061 | [3] 0.082 | [4] -0.005 | [5] 0.033

STX7 (UniProt O15400)
inactive: [1] 0.023 | [2] 0.01 | [3] 0.027 | [4] -0.011 | [5] -0.011

SYK (UniProt P43405)
inactive: [1] 0.21 | [2] -0.221 | [3] -0.041 | [4] 0.132 | [5] -0.105

TAOK3 (UniProt Q9H2K8)
inactive: [1] 0 | [2] 0.057 | [3] 0.002 | [4] -0.003 | [5] -0.024

SVBP (UniProt Q8N300)
inactive: [1] -0.062 | [2] 0.073 | [3] 0.012 | [4] -0.065 | [5] -0.013

SUN2 (UniProt Q9UH99)
inactive: [1] 0.029 | [2] -0.004 | [3] -0.025 | [4] 0.025 | [5] -0.015

TACC2 (UniProt O95359)
inactive: [1] -0.031 | [2] -0.03 | [3] 0.166 | [4] 0.011 | [5] 0.05

STX12 (UniProt Q86Y82)
inactive: [1] 0.019 | [2] 0.007 | [3] 0.014 | [4] -0.002 | [5] 0.019

TAPBP isoform 3 (UniProt O15533)
inactive: [1] 0.043 | [2] 0.162 | [3] -0.218 | [4] 0.015 | [5] -0.088

SUGP1 (UniProt Q8IWZ8)
inactive: [1] 0 | [2] -0.001 | [3] 0.066 | [4] -0.046 | [5] 0.019

SUOX (UniProt P51687)
inactive: [1] 0.01 | [2] 0 | [3] 0.096 | [4] -0.011 | [5] -0.021

TAF10 (UniProt Q12962)
inactive: [1] 0.026 | [2] -0.051 | [3] -0.098 | [4] -0.056 | [5] 0.018

SUCLG2 (UniProt Q96I99)
inactive: [1] -0.006 | [2] 0.066 | [3] 0.079 | [4] -0.031 | [5] -0.032

TARDBP (UniProt Q13148)
inactive: [1] -0.143 | [2] -0.17 | [3] -0.06 | [4] 0.004 | [5] 0.187

STXBP5L (UniProt Q9Y2K9)
inactive: [2] -0.01 | [5] -0.063

STXBP4 (UniProt Q6ZWJ1)
inactive: [3] 0.114

SUSD1 isoform 2 (UniProt Q6UWL2)
inactive: [1] 0.022 | [2] 0.006 | [3] 0.088 | [5] 0.006

STON2 isoform 3 (UniProt Q8WXE9)
inactive: [4] 0.113

Two entries picked at random from the list so far:
STXBP4 (UniProt Q6ZWJ1)
inactive: [3] 0.114

SUSD1 isoform 2 (UniProt Q6UWL2)
inactive: [1] 0.022 | [2] 0.006 | [3] 0.088 | [5] 0.006
